Values from PubChem BioAssay AID493246 (Drosophila RNAi Screening Center, 2011)
Screen: 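Genome-wide search for dsRNAs that reduce cell number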 (primary screen). Cell system: Drosophila Kc and S2R+ cells. Knock-down reagent: long dsRNA against Drosophila genes. Detection: 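Raw, unnormalised count of remaining cells in each well; per-plate z-scores of cell number underlie the calls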. Reading the numbers: Kc cell number and S2R+ cell number: higher = more cells remaining. Hit rule: 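Counted as a hit if cell number falls by a z-score of at least 3 within its plate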.
In all, the deposit lists about 21,000 reagents; this is an unselected part of those with a known target gene and a result. In the full data, 429 (2%) are marked active. 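Values are raw and not normalised between plates; calls rest on per-plate z-scores that were not deposited.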 A number with no mark means an inactive call. Not given: the amount of reagent, the time to read-out.

jigr1 [SID104193516] → Kc cell number, rep 1 = 1.02e6; Kc cell number, rep 2 = 1.31e6; S2R+ cell number, rep 1 = 1.07e6; S2R+ cell number, rep 2 = 1.01e6
jigr1 [SID104195025] → Kc cell number, rep 1 = 1.62e6; Kc cell number, rep 2 = 1.60e6; S2R+ cell number, rep 1 = 9.91e5; S2R+ cell number, rep 2 = 1.09e6
S-Lap4 [SID104190749] → Kc cell number, rep 1 = 1.67e6; Kc cell number, rep 2 = 1.65e6; S2R+ cell number, rep 1 = 1.23e6; S2R+ cell number, rep 2 = 1.41e6
CG2887 [SID104198027] → Kc cell number, rep 1 = 1.57e6; Kc cell number, rep 2 = 1.50e6; S2R+ cell number, rep 1 = 1.05e6; S2R+ cell number, rep 2 = 1.13e6
CG31111 [SID104194441] → Kc cell number, rep 1 = 1.39e6; Kc cell number, rep 2 = 1.41e6; S2R+ cell number, rep 1 = 7.63e5; S2R+ cell number, rep 2 = 8.53e5
Cpr76Bb [SID104190853] → Kc cell number, rep 1 = 1.44e6; Kc cell number, rep 2 = 1.44e6; S2R+ cell number, rep 1 = 1.37e6; S2R+ cell number, rep 2 = 1.47e6
bel [SID104196347] → Kc cell number, rep 1 = 1.30e6; Kc cell number, rep 2 = 1.43e6; S2R+ cell number, rep 1 = 1.04e6; S2R+ cell number, rep 2 = 1.15e6
PGRP-SC2 [SID104186273] → Kc cell number, rep 1 = 1.67e6; Kc cell number, rep 2 = 1.67e6; S2R+ cell number, rep 1 = 1.35e6; S2R+ cell number, rep 2 = 1.47e6
tbrd-3 [SID104184087] → Kc cell number, rep 1 = 1.55e6; Kc cell number, rep 2 = 1.66e6; S2R+ cell number, rep 1 = 1.21e6; S2R+ cell number, rep 2 = 1.36e6
AMPKalpha [SID104198506] → Kc cell number, rep 1 = 5.94e5; S2R+ cell number, rep 1 = 9.50e5
CG2604 [SID104192105] → Kc cell number, rep 1 = 1.66e6; Kc cell number, rep 2 = 1.78e6; S2R+ cell number, rep 1 = 1.30e6; S2R+ cell number, rep 2 = 1.40e6
mRpS9 [SID104192437] → Kc cell number, rep 1 = 1.39e6; Kc cell number, rep 2 = 1.48e6; S2R+ cell number, rep 1 = 1.05e6; S2R+ cell number, rep 2 = 1.20e6
mRpS9 [SID104195248] → Kc cell number, rep 1 = 1.29e6; Kc cell number, rep 2 = 1.44e6; S2R+ cell number, rep 1 = 9.16e5; S2R+ cell number, rep 2 = 1.04e6
APP-BP1 [SID104190712] → Kc cell number, rep 1 = 1.27e6; Kc cell number, rep 2 = 1.26e6; S2R+ cell number, rep 1 = 1.35e6; S2R+ cell number, rep 2 = 1.46e6
amx [SID104198528] → Kc cell number, rep 1 = 1.56e6; Kc cell number, rep 2 = 1.66e6; S2R+ cell number, rep 1 = 9.50e5; S2R+ cell number, rep 2 = 1.08e6
CG5391 [SID104195582] → Kc cell number, rep 1 = 1.35e6; Kc cell number, rep 2 = 1.36e6; S2R+ cell number, rep 1 = 1.09e6; S2R+ cell number, rep 2 = 1.19e6
Cul4 [SID104187035] → Kc cell number, rep 1 = 1.29e6; Kc cell number, rep 2 = 1.36e6; S2R+ cell number, rep 1 = 6.59e5; S2R+ cell number, rep 2 = 7.91e5
CG6296 [SID104195805] → Kc cell number, rep 1 = 4.83e5; S2R+ cell number, rep 1 = 8.45e5
CG17752 [SID104195054] → Kc cell number, rep 1 = 1.31e6; Kc cell number, rep 2 = 1.31e6; S2R+ cell number, rep 1 = 1.06e6; S2R+ cell number, rep 2 = 1.14e6
CG8675 [SID104199909] → Kc cell number, rep 1 = 1.45e6; Kc cell number, rep 2 = 1.55e6; S2R+ cell number, rep 1 = 1.05e6; S2R+ cell number, rep 2 = 1.14e6
Ilp7 [SID104197687] → Kc cell number, rep 1 = 1.61e6; Kc cell number, rep 2 = 1.52e6; S2R+ cell number, rep 1 = 1.04e6; S2R+ cell number, rep 2 = 1.20e6
Crag [SID104198246] → Kc cell number, rep 1 = 5.13e5; S2R+ cell number, rep 1 = 8.67e5
CG6761 [SID104190497] → Kc cell number, rep 1 = 1.29e6; Kc cell number, rep 2 = 1.36e6; S2R+ cell number, rep 1 = 1.40e6; S2R+ cell number, rep 2 = 1.31e6
kug [SID104190703] → Kc cell number, rep 1 = 1.46e6; Kc cell number, rep 2 = 1.51e6; S2R+ cell number, rep 1 = 1.34e6; S2R+ cell number, rep 2 = 1.31e6
PGS1 [SID104196096] → Kc cell number, rep 1 = 1.18e6; Kc cell number, rep 2 = 1.14e6; S2R+ cell number, rep 1 = 1.09e6; S2R+ cell number, rep 2 = 1.21e6
phtf [SID104184815] → Kc cell number, rep 1 = 1.43e6; Kc cell number, rep 2 = 1.56e6; S2R+ cell number, rep 1 = 1.16e6; S2R+ cell number, rep 2 = 1.18e6
CG3246 [SID104180376] → Kc cell number, rep 1 = 1.36e6; Kc cell number, rep 2 = 1.33e6; S2R+ cell number, rep 1 = 1.12e6; S2R+ cell number, rep 2 = 1.24e6
